Experimental findings from PubChem BioAssay AID624405 (Broad Institute, 2012) are described below.

Out of some 1,900 compounds screened, about 250 (13%) were called active. Not shown: some 4% with an inconclusive outcome.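 How the source made its calls: active means fitted curve reaches 40% rescue activity at or below the top valid dose, in every test run; inconclusive means test runs disagree, some active and some inactive; inactive means every run misses the threshold or moves the wrong way.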 The entries are a selection whose mix differs from that of the whole data set. Entries with a potency or affinity are not part of this list.

The experiment in a line: rescue of simvastatin-induced ATP loss – cell-based, C2C12 myotubes, ATP luminescence, cherry pick, dose response (AID 624405).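 Further: myotubes are challenged with simvastatin at 10 µM to lower ATP.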 The settings on record: 48 h, scaled: DMSO wells 0, geranylgeraniol wells 100; at 19.5 µM (top of the series) unless noted.
In the case of `C[C@@H]1CCCCO[C@H](CN(C)C(=O)Nc2ccc3c(c2)OCO3)[C@H](C)CN([C@@H](C)CO)C(=O)c2cc(NS(=O)(=O)c3ccc(F)cc3)ccc2O1`, the rescue activity (ATP increase) is inactive: 30.1%.
For the compound `C=CCCCCCCCCc1nc(=S)[nH][nH]1`, the rescue activity (ATP increase) was inactive: 37.8%.
As for `O=c1[nH]nc(Cc2ccc(Cl)cc2Cl)c2ccccc12`, the rescue activity (ATP increase) is inactive: 27.6%.
With `Cc1ccc(-n2ncc3c(=O)[nH]c(SCC(=O)N4CCOCC4)nc32)cc1` the figure was inactive: -8.65%; with `O=C1C=C(c2cccc(Cl)c2)C[C@@H](c2ccc3c(c2)OCO3)C1`, inactive: 23.2%.
As to `CCCCOc1nc2ccccc2nc1C(C#N)C(=O)NC1CCCCC1` (stereo unspecified), the rescue activity (ATP increase) is inactive: -30.1%.
Take `COc1cccc(S(=O)(=O)N(C)C[C@H]2OCc3ccccc3-c3c(n(C)c4ccccc34)C(=O)N([C@H](C)CO)C[C@H]2C)c1`: the rescue activity (ATP increase) is inactive: -1.38%.
As to `Cc1noc(C)c1NC(=O)Nc1ccc2c(c1)CC(=O)N([C@H](C)CO)C[C@H](C)[C@@H](CN(C)Cc1ccc(C(F)(F)F)cc1)O2`, the rescue activity (ATP increase) was inactive: 4.75%.
With `COc1cc(S(=O)(=O)Nc2ncccc2C)c(OC)cc1Cl` the figure was inactive: 7.54%; with `O=C(CSc1nc2ccccc2[nH]1)Nc1ccc2c(c1)OCCO2`, inactive: -4.52%; with `COc1ccc(NC(=O)Nc2ccc3c(c2)C(=O)N([C@@H](C)CO)C[C@@H](C)[C@H](CN(C)C(=O)C2CCCCC2)OCCCC[C@H](C)O3)cc1`, inactive: -1.73%.
For the compound `C=CCn1c(COc2cccc3cccnc23)nnc1SCC(=O)O`, the rescue activity (ATP increase) is inactive: 9.15%.
The figure for `O=C(Cc1cn2ccsc2n1)Nc1ccccc1Oc1ccccc1` is inactive: 53.2% [at 10 µM].
With `COc1ccc(NC(=O)Nc2ccc3c(c2)C(=O)N([C@@H](C)CO)C[C@H](C)[C@@H](CN(C)Cc2ccc(C(F)(F)F)cc2)OCCCC[C@@H](C)O3)cc1` the figure was inactive: -51.8%; with `CC(=O)c1cc(C#N)c(Oc2ccccc2)nc1C`, inactive: 13.1%; with `COc1ccc(OC)c(-c2cc(C(=O)NCCCn3ccnc3)no2)c1`, inactive: 13.1%.
With `COc1ccc(CN(C)C[C@@H]2Oc3ccc(NS(=O)(=O)c4ccc(Cl)cc4)cc3CC(=O)N([C@H](C)CO)C[C@H]2C)cc1` the figure was inactive: 34.8%.
In the case of `Cc1noc(C)c1S(=O)(=O)Nc1ccc2c(c1)CC(=O)N([C@@H](C)CO)C[C@@H](C)[C@@H](CN(C)Cc1ccc(Cl)c(Cl)c1)O2`, the rescue activity (ATP increase) was inactive: 3.78% [at 21 µM].
On to `CCCN1C(=O)C(O)(C/C(C)=N/O)c2ccccc21` (stereo unspecified), for which the rescue activity (ATP increase) was inactive: -3.34%.
Take `COCCn1c(-c2ccccc2F)n[nH]c1=S`: the rescue activity (ATP increase) was inactive: 24%.
Consider `COc1cc(C)c(C(C)C)cc1S(=O)(=O)NCCCn1ccnc1`, for which the rescue activity (ATP increase) is inactive: -23%.
The figure for `C[C@@H]1CN([C@@H](C)CO)C(=O)c2cc(C#CC3CCCCC3)cnc2O[C@H]1CN(C)C(=O)C1CCCCC1` is inactive: 7.55%; for `CS(=O)(=O)N(CC(=O)NCc1ccccc1)C1CCCCC1` it is inactive: 0.866%.
The figure for `COCc1c(C(=O)OC)nnn1-c1ccccc1` is inactive: 8.34%; for `Cc1c(Br)cc(C(=O)N2CCCCCC2)c(C)c1C` it is inactive: -47.9%.
With `C=C(C)Cn1c(CCCNC(=O)C(C)(C)C)nc2ccccc21` the figure was inactive: 0.573%.
As for `COC(=O)c1cc(S(=O)(=O)NCCc2ccccc2)c[nH]1`, the rescue activity (ATP increase) is inactive: -7.87%.
With `CCC(NS(=O)(=O)c1ccc(C)cc1)C(=O)Nc1ccc(NC(C)=O)cc1` (stereo unspecified), the rescue activity (ATP increase) is inactive: -17.2%.
The figure for `Cc1cccc(Nc2nc(CC(=O)O)cs2)c1` is inactive: -21.3%.
With `COc1ccccc1NC(=O)NC1(C(=O)N2CCCCCC2)CCCCC1` the figure was inactive: 14.8%.
With `CCS(=O)(=O)N1CCCC(C(=O)NCCc2ccc(OC)c(OC)c2)C1` (stereo unspecified) the figure was inactive: -21.5%; with `O=C1CC(c2ccncc2)c2cc3c(cc2N1)OCCO3` (stereo unspecified), inactive: 28.1%.
In the case of `CC(C)NC(=O)CN1C(=O)NC(CCc2ccccc2)C1=O` (stereo unspecified), the rescue activity (ATP increase) is inactive: -27.9%.
The figure for `CCOc1ccccc1CN1CCNC(=O)C1CC(=O)N(C)CCc1ccccn1` (stereo unspecified) is inactive: -6.58%; for `C[C@H]1CN([C@@H](C)CO)C(=O)c2cc(C#CC3CCCCC3)cnc2O[C@@H]1CN(C)C(=O)C1CCCCC1` it is inactive: 8.63%; for `C[C@@H]1CN([C@H](C)CO)C(=O)Cc2cc(NC(=O)Cc3cn(C)c4ccccc34)ccc2O[C@H]1CN(C)Cc1ccc(-c2ccccc2)cc1` it is inactive: 9.45%.
The figure for `C[C@H](CO)N1C[C@H](C)[C@@H](CN(C)Cc2ccc(Cl)c(Cl)c2)Oc2c(cccc2N(C)C)C1=O` is inactive: 19.5% [at 21 µM]; for `COc1ccc2[nH]c(=O)c(CNc3ccc(C)c(C)c3)cc2c1` it is inactive: 35.4%.
With `COCCNC(=O)[C@@]1(Cc2ccccc2)C=C[C@@H](C)N1C(C)=O`, the rescue activity (ATP increase) is inactive: -15.8%.
In the case of `C[C@@H]1CN([C@H](C)CO)C(=O)Cc2cc(NC(=O)Nc3cccc4ccccc34)ccc2O[C@H]1CN(C)CC1CCCCC1`, the rescue activity (ATP increase) was inactive: 15.5%.
The figure for `O=C(O)CCC(=O)Nc1nnc(C(F)(F)F)s1` is inactive: 1.86%; for `COc1ccc(S(=O)(=O)Nc2ccc3c(c2)C(=O)N([C@@H](C)CO)C[C@@H](C)[C@H](CN(C)S(=O)(=O)c2ccc(F)cc2)OCCCC[C@@H](C)O3)cc1` it is inactive: -17.1%.
The figure for `COc1ccc(S(=O)(=O)NCc2csc(C)n2)cc1` is inactive: -5.58%; for `C[C@@H]1CN([C@H](C)CO)C(=O)c2cc(NS(=O)(=O)c3cccs3)ccc2O[C@@H](C)CCCCO[C@@H]1CN(C)Cc1ccc(C(F)(F)F)cc1` it is inactive: -13.6%.
The figure for `Cc1cc(=O)[nH]c(SCC2(O)C3CC4CC(C3)CC2C4)n1` (stereo unspecified) is inactive: -5.83%; for `Cc1ccc(NC(=O)c2cc(-c3cccs3)on2)cc1C` it is inactive: -12.4%.
For the compound `NC(=O)C1CCN(Cc2nc3cc(Cl)ccc3c(=O)[nH]2)CC1`, the rescue activity (ATP increase) was inactive: 9.91%.
Take `C=CCOC(=O)c1ccc(-n2cncn2)nc1`: the rescue activity (ATP increase) was inactive: -9.68%.
The figure for `O=C(NCc1ccco1)c1ccccc1NS(=O)(=O)c1ccc2c(c1)OCCO2` is inactive: 26%; for `O=C(O)CSc1nc(-c2ccccc2)nc2c1oc1ccccc12` it is inactive: -11.1%; for `COc1ccc(CN2[C@H](CO)[C@H]3c4ccccc4N(C(=O)c4ccccc4)C[C@H]32)cc1` it is inactive: 21.3%.
